# Screening data

Source: PubChem BioAssay AID504749 (NCATS, 2011).

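A panel of P. falciparum strains inside erythrocytes is exposed to compounds for three days, then a DNA-binding dye reports the amount of parasite DNA.
Each compound was titrated across a series from about 0.000037 to 29 µM.
The number is the fitted AC50, the concentration giving a half-maximal change in signal; a lower value means higher potency, whether the curve shows a decrease or an increase.
Calls follow the curve class and fit quality: every row here is inconclusive, covering signal-raising curves and weak, poorly fitted, partial or highest-dose-only inhibition curves.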

Values are in µM.
Every entry below has the call inconclusive.
These entries are mostly ones the record files as inconclusive; other results of the assay are not listed here.
Potencies fitted to partial, single-point or poorly fitting curves are rough.
Some entries filed as inconclusive have a full curve.
The first word of each remark tells which way the curve ran; it can be opposite to the aim of the assay.

Compound,condition,potency (µM),curve
CCCCc1oc2ccccc2c1C(=O)c1cc(I)c(OCCN(CC)CC)c(I)c1,CP194,13.46,"inhibitor, partial curve"
COCCCCC(=NOCCN)c1ccc(C(F)(F)F)cc1,DIV30,9.528,"inhibitor, partial curve"
COCCCCC(=NOCCN)c1ccc(C(F)(F)F)cc1,CP329,3.013,"inhibitor, partial curve"
COCCCCC(=NOCCN)c1ccc(C(F)(F)F)cc1,CP291,6.012,"inhibitor, partial curve"
COCCCCC(=NOCCN)c1ccc(C(F)(F)F)cc1,CP194,7.569,"inhibitor, partial curve"
COCCCCC(=NOCCN)c1ccc(C(F)(F)F)cc1,CP297,3.793,"inhibitor, full curve"
COCCCCC(=NOCCN)c1ccc(C(F)(F)F)cc1,CP203,6.746,"inhibitor, partial curve"
COCCCCC(=NOCCN)c1ccc(C(F)(F)F)cc1,CP335,6.012,"inhibitor, partial curve"
COCCCCC(=NOCCN)c1ccc(C(F)(F)F)cc1,CP201,4.776,"inhibitor, partial curve, poor fit"
COCCCCC(=NOCCN)c1ccc(C(F)(F)F)cc1,CP268,6.012,"inhibitor, partial curve, poor fit"
COCCCCC(=NOCCN)c1ccc(C(F)(F)F)cc1,CP266,6.746,"inhibitor, partial curve"
COCCCCC(=NOCCN)c1ccc(C(F)(F)F)cc1,CP305,4.256,"inhibitor, partial curve, poor fit"
COCCCCC(=NOCCN)c1ccc(C(F)(F)F)cc1,CP262,9.528,"inhibitor, partial curve, poor fit"
COCCCCC(=NOCCN)c1ccc(C(F)(F)F)cc1,CP325,5.358,"inhibitor, partial curve"
COCCCCC(=NOCCN)c1ccc(C(F)(F)F)cc1,CP211,8.492,"inhibitor, partial curve, poor fit"
COCCCCC(=NOCCN)c1ccc(C(F)(F)F)cc1,CP269,6.012,"inhibitor, partial curve, poor fit"
COCCCCC(=NOCCN)c1ccc(C(F)(F)F)cc1,CP215,10.69,"inhibitor, partial curve, poor fit"
NS(=O)(=O)c1cc2c(cc1C(F)(F)F)N[C@H](Cc1ccccc1)NS2(=O)=O,parasite line B,10,"inhibitor, single point"
C#C[C@]1(O)CC[C@@H]2[C@H]3CCC4=CC(=O)CC[C@H]4[C@H]3C(=C)C[C@@]21CC,CP217,12.59,"inhibitor, single point"
C#C[C@]1(O)CC[C@@H]2[C@H]3CCC4=CC(=O)CC[C@H]4[C@H]3C(=C)C[C@@]21CC,CP329,0.4775,"inhibitor, full curve, poor fit"
C#C[C@]1(O)CC[C@@H]2[C@H]3CCC4=CC(=O)CC[C@H]4[C@H]3C(=C)C[C@@]21CC,CP203,0.3793,"inhibitor, full curve, poor fit"
C#C[C@]1(O)CC[C@@H]2[C@H]3CCC4=CC(=O)CC[C@H]4[C@H]3C(=C)C[C@@]21CC,CP191,12.59,"inhibitor, partial curve"
C#C[C@]1(O)CC[C@@H]2[C@H]3CCC4=CC(=O)CC[C@H]4[C@H]3C(=C)C[C@@]21CC,CP325,0.4775,"inhibitor, full curve, poor fit"
C#C[C@]1(O)CC[C@@H]2[C@H]3CCC4=CC(=O)CC[C@H]4[C@H]3C(=C)C[C@@]21CC,CP256,5.012,"inhibitor, partial curve"
C#C[C@]1(O)CC[C@@H]2[C@H]3CCC4=CC(=O)CC[C@H]4[C@H]3C(=C)C[C@@]21CC,DIV14,0.3381,"inhibitor, full curve"
C#C[C@]1(O)CC[C@@H]2[C@H]3CCC4=CC(=O)CC[C@H]4[C@H]3C(=C)C[C@@]21CC,DIV17,0.4775,"inhibitor, full curve, poor fit"
C#C[C@]1(O)CC[C@@H]2[C@H]3CCC4=CC(=O)CC[C@H]4[C@H]3C(=C)C[C@@]21CC,7G8,7.943,"inhibitor, partial curve"
C#C[C@]1(O)CC[C@@H]2[C@H]3CCC4=CC(=O)CC[C@H]4[C@H]3C(=C)C[C@@]21CC,ICS,10,"inhibitor, single point"
C#C[C@]1(O)CC[C@@H]2[C@H]3CCC4=CC(=O)CC[C@H]4[C@H]3C(=C)C[C@@]21CC,W2,0.3013,activator
C#C[C@]1(O)CC[C@@H]2[C@H]3CCC4=CC(=O)CC[C@H]4[C@H]3C(=C)C[C@@]21CC,GB4,0.5358,"inhibitor, full curve, poor fit"
C#C[C@]1(O)CC[C@@H]2[C@H]3CCC4=CC(=O)CC[C@H]4[C@H]3C(=C)C[C@@]21CC,PC26,0.5358,"inhibitor, full curve"

Some entries from above, unchanged:

With COCCCCC(=NOCCN)c1ccc(C(F)(F)F)cc1 [CP268] the assay gave potency 6.012 µM (inhibitor, partial curve, poor fit).
With C#C[C@]1(O)CC[C@@H]2[C@H]3CCC4=CC(=O)CC[C@H]4[C@H]3C(=C)C[C@@]21CC [DIV14] the assay gave potency 0.3381 µM (inhibitor, full curve).
With COCCCCC(=NOCCN)c1ccc(C(F)(F)F)cc1 [CP291] the assay gave potency 6.012 µM (inhibitor, partial curve).
With C#C[C@]1(O)CC[C@@H]2[C@H]3CCC4=CC(=O)CC[C@H]4[C@H]3C(=C)C[C@@]21CC [7G8] the assay gave potency 7.943 µM (inhibitor, partial curve).